Data on two molecules can be found in patent US20110243845A1.

Chains of the proteins cited; added tags and fusions are not shown.
UniProt P30874: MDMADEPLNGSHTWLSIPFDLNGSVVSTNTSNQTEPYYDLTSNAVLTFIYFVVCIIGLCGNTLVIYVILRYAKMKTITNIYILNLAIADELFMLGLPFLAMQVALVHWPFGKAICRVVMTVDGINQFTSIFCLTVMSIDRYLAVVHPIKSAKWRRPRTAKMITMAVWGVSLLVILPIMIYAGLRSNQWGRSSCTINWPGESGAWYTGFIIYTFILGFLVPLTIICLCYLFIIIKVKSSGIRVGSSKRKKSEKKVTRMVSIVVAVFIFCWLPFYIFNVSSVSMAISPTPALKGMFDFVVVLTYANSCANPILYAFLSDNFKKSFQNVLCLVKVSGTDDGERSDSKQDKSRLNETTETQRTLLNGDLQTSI

No constants are given. Whether binding was seen depends on the method and setting. Some results given as binding are weak or reduced against the parent protein; the word gives no strength.

The target in test [1] is hsst2 (human) (UniProt P30874). In words: binding potencies at somatostatin receptors hsst1-5; method not described.
For test [2], the target named is hsst2 (human) (UniProt P30874). In words: binding potencies at somatostatin receptors; method not described.

In the case of PFWKTF (head-to-tail cyclic hexapeptide; residue 3 is (2R,3R)-β-methyl-Trp) [c[Pro-Phe-(2R,3R)-β-MeTrp-Lys-Thr-Phe]], the binding entry in test [1] is “binds”. In the case of PFWKTF (head-to-tail cyclic hexapeptide; residue 3 is (2R,3S)-β-methyl-Trp) [c[Pro-Phe-(2R,3S)-β-MeTrp-Lys-Thr-Phe]], the binding entry in test [2] and in test [1] was “binds” in each case.
